Experimental data published in PubChem BioAssay AID744 (University of Pittsburgh Molecular Library Screening Center, 2007).
Inconclusive results, whose numbers are uncertain, are shown with a selection of clear calls. Active and inactive are the calls of the source.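 The calls were made as follows: active = inhibition at or above 50% in each of two repeat confirmation tests; inconclusive = one repeat below 50% inhibition, the other above; inactive = both repeats at or below 50% inhibition.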

Sequences of proteins named here, by UniProt entry; tags and fusion partners are left off.
UniProt P53350, whole entry, looked up: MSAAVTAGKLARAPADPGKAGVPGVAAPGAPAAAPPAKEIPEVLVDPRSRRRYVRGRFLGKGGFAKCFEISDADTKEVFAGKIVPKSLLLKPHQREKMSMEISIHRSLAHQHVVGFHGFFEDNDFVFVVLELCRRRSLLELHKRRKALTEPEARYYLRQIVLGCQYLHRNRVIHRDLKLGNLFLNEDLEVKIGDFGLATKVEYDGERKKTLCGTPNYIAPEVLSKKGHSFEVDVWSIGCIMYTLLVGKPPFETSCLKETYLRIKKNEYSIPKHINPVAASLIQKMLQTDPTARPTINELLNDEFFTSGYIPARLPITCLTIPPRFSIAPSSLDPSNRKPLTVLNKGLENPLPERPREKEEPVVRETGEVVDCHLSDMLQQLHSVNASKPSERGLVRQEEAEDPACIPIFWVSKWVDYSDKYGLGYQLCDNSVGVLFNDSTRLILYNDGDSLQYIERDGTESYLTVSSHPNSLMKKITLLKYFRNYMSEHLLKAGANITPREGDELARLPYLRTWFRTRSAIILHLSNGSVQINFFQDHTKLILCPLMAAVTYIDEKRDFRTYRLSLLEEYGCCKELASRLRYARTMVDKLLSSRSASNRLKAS

Target: Serine/threonine-protein kinase PLK1 (Homo sapiens) (UniProt P53350)
Assay: PLK1 kinase activity inhibitors, confirmation, biochemical, TR-FRET, duplicate runs (AID 744);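 also: 0% = DMSO max control and 100% = H-89 kinase-blocked min control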
Settings: recombinant PLK1 kinase, TR-FRET peptide phosphorylation; at 10 µM; hits give high values

Row | Compound | inhibition
1 | COc1ccc(Cn2c(N)c(C(=O)NCc3ccco3)c3nc4ccccc4nc32)cc1OC | active: 71.4%
2 | CN1/C(=C\C=C\C2=[N+](C)c3ccc4ccccc4c3C2(C)C)C(C)(C)c2ccccc21 | inconclusive: 54.4%
